Assay results taken from PubChem BioAssay AID445 (National Center for Advancing Translational Sciences (NCATS), 2006).
The list shows a part of the results. Shown are side measurements of this screen, not its main read-out; they come without a call. Most of these compounds were active or inconclusive in the main read-out, so they are no random draw. Potencies come from curve fits of mixed quality, noted in brackets.

Experiment: IkB Signaling
Conditions: ABC-DLBCL IkBa-CBG/CBR dual luciferase ratio (green luciferase fused to IkBa over red control in OCI-Ly3 lymphoma cells), 4 h
In short: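 In this assay, an IκBα–CBG68 fusion accumulates when IKK-driven degradation is blocked; native CBR normalizes for cell number. OCI-Ly3 cells were treated 4 h with compound and doxycycline, then green and red light read after Chroma-Glo addition.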

[1] = measured here: control luc red channel unless noted
[2] = measured here: IkB-luc green channel
[3] = measured here: control luc red channel

Cc1cccc(-n2c(=O)c3c4c(sc3n3c(C)nnc23)CCCC4)c1
AC50 [1]: 1 µM [rising, full curve]

COc1ccc(NC(=O)c2oc3ccccc3c2NC(=O)C2CCCCC2)c(OC)c1
AC50 [1]: 1.58 µM [falling, full curve, poor fit]

Clc1ccc(-n2c(Cc3ccccc3)nnc2SCc2nc(-c3cccs3)no2)cc1
AC50 [1]: 20 µM [falling, partial curve]

CCCn1c(=O)c2ccccc2n2c(SCc3c(C(=O)OCC)oc4ccccc34)nnc12
AC50 [1]: 25.1 µM [falling, partial curve]

CCCCN(C)C(=O)c1ccc2c(c1)N(Cc1cccc(F)c1)C(=O)c1ccccc1S2
AC50 [1]: 25.1 µM [falling, single point]

Oc1cccc(Nc2nc(NCC3CCCO3)c3ccccc3n2)c1 (centres undefined)
AC50 [2]: 10 µM [falling, partial curve] | AC50 [3]: 12.6 µM [falling, partial curve]

Cc1cc(=O)n2[nH]c(-c3ccc(Cl)cc3)cc2n1
AC50 [1]: 15.8 µM [falling, single point]

Cc1cc(C)c(/C=C/c2onc(C)c2S(=O)(=O)N2CCC(C(=O)NCCc3ccccc3)CC2)c(C)c1
AC50 [1]: 7.94 µM [falling, full curve, poor fit]

Cc1c(CCC(=O)NCc2ccc(F)cc2)c(=O)oc2cc(O)ccc12
AC50 [1]: 25.1 µM [falling, partial curve]

CCCN(CCC)C(=O)c1c[nH]c2ccc(S(=O)(=O)N(C)c3ccc(OCC)cc3)cc2c1=O
AC50 [1]: 39.8 µM [falling, single point]

O=C(CN1CCN(c2ccccn2)CC1)Nc1ccc(Oc2ccccc2)cc1
AC50 [1]: 15.8 µM [falling, partial curve]

Cc1ccccc1OCC(=O)Nc1ccc(C(=O)OCc2cc(=O)n3c(C)csc3n2)cc1
AC50 [1]: 0.631 µM [rising, full curve, poor fit]

Cc1cc(C)cc(NC(=O)CSc2nnc(Cc3cccn3C)n2-c2ccc(F)cc2)c1
AC50 [1]: 12.6 µM [falling, partial curve]

COc1ccc(CNC(=O)CSCc2cnn(-c3ccccc3)c2-n2cccc2)cc1OC
AC50 [1]: 10 µM [falling, partial curve]

Cc1cccc(N2CCN(C(=O)c3cc4c(=O)[nH]c5ccc(C)cc5c4s3)CC2C)c1 (centres undefined)
AC50 [1]: 0.00501 µM [falling, full curve, poor fit]

CC(=O)N1CCN(c2nc3c(F)cc(F)cc3s2)CC1
AC50 [1]: 10 µM [rising, partial curve]

COc1ccc(C(C(=O)Nc2ccc(C(C)C)cc2)N(C)C(=O)Cc2cccs2)cc1 (centres undefined)
AC50 [1]: 6.31 µM [falling, partial curve]

Cc1ccccc1Nc1nnc(-c2ccc(C)c(S(=O)(=O)N3CCN(C)CC3)c2)c2ccccc12
AC50 [1]: 39.8 µM [falling, partial curve]

Cc1cccc(Nc2nc(NCc3ccco3)nc(N3CCOCC3)n2)c1
AC50 [1]: 15.8 µM [falling, partial curve]

CN(C)c1ccc(-c2nc3ccccc3n2C)cc1
AC50 [1]: 7.94 µM [falling, partial curve]

COc1cccc(NC(c2nnc(-c3ccccc3)o2)c2ccc(F)cc2Cl)c1 (centres undefined)
AC50 [1]: 12.6 µM [falling, partial curve]

COc1ccc(C(=O)NCC(c2cccnc2)N2CCN(c3ccccc3OC)CC2)cc1 (centres undefined)
AC50 [1]: 25.1 µM [falling, single point]

Cc1ccc(NC(=O)C(=O)NCC(c2cccnc2)N2CCN(C)CC2)cc1 (centres undefined)
AC50 [1]: 20 µM [falling, partial curve]

O=C(NCc1ccco1)c1ccc2c(=O)n(Cc3ccco3)c(SCC(=O)N3CCCC3)nc2c1
AC50 [1]: 10 µM [falling, partial curve]

CCn1c2c(c(=O)n3ncc(C(=O)Nc4ccc(C(=O)OC)cc4)c13)CN(Cc1ccc(OC)cc1)CC2
AC50 [1]: 12.6 µM [falling, single point]

COc1ccc(C)cc1NC(=O)c1ccc2nc(Cc3ccccc3)oc2c1
AC50 [1]: 1 µM [falling, partial curve]

COc1ccc(N2CCN(C(=O)CSc3nc4ccccc4nc3Cc3ccc(Cl)cc3)CC2)cc1
AC50 [1]: 5.01 µM [falling, partial curve]

CCOc1ccc(OCc2ccc(C(=O)Nc3cccc(C)n3)o2)cc1
AC50 [1]: 12.6 µM [falling, partial curve]

Cc1c(C(=O)NCCc2ccc(Cl)cc2)cccc1-n1cnc2cccnc21
AC50 [1]: 15.8 µM [falling, partial curve, poor fit]

COc1ccc(N2CCN(C(=O)c3cc(-c4ccc(C)c(F)c4)on3)CC2)cc1
AC50 [1]: 25.1 µM [falling, partial curve]

CCn1c2ccccc2c2cc(CN3CCN(Cc4ccc(OC)c(OC)c4)CC3)ccc21
AC50 [1]: 15.8 µM [falling, partial curve]

COc1ccc(Cn2c(=O)[nH]c3cc(C(=O)N4CCN(Cc5ccccc5)CC4)ccc3c2=O)cc1
AC50 [1]: 1.26 µM [falling, full curve, poor fit]

COc1cc(OC)c(OC)cc1CNc1cc(C)ccc1OC
AC50 [1]: 10 µM [falling, partial curve]

CCOC(=O)Cn1c(=O)n(CC2CCCO2)c2nc(-c3ccccc3Cl)nc(C(N)=O)c21 (centres undefined)
AC50 [1]: 3.16 µM [falling, full curve]

O=c1c(N2CCc3ccccc3C2)csc2ccc(F)cc12
AC50 [1]: 3.98 µM [falling, partial curve]

CCOc1ccccc1NC(=O)C1=C(C)Nc2ncnn2C1c1sccc1C (centres undefined)
AC50 [1]: 25.1 µM [falling, partial curve]

c1ccc(CSc2nnc(-c3ccco3)c(-c3ccco3)n2)cc1
AC50 [1]: 25.1 µM [rising, partial curve] [measured here: IkB-luc green channel]

Cc1ccc(CNC(=O)c2c(-c3ccc(Br)cc3)noc2C)o1
AC50 [1]: 31.6 µM [falling, single point]

O=C(CCCn1c(=O)c2cccn2c2cccnc21)Nc1ccccc1C(F)(F)F
AC50 [1]: 2.51 µM [rising, full curve]

COc1ccccc1N1CCN(C(=O)c2cc(-c3cccs3)on2)CC1
AC50 [1]: 31.6 µM [falling, partial curve]

Fc1ccccc1N1CCN(c2nnc(C(F)(F)F)c3nnn(Cc4ccccc4)c23)CC1
AC50 [1]: 39.8 µM [falling, single point]

CN(C)S(=O)(=O)N(CC(=O)Nc1ccc(Br)cc1F)c1ccccc1
AC50 [1]: 39.8 µM [falling, single point]

COc1ccc(C)cc1NC(=O)C1CCCN(S(=O)(=O)c2ccc3c(c2)CCCN3C(C)=O)C1 (centres undefined)
AC50 [1]: 0.126 µM [falling, full curve, poor fit]

C=CCn1c(SCC(=O)Nc2cccc(OC)c2)nnc1-c1cccnc1
AC50 [1]: 7.94 µM [falling, partial curve]

CCCn1c(CN2CCN(C(=O)c3ccco3)CC2)nc2c1c(=O)n(C)c(=O)n2C
AC50 [2]: 31.6 µM [rising, partial curve] | AC50 [3]: 6.31 µM [falling, partial curve]

CCC(C)(C)NC(=O)C1CCC(CNS(=O)(=O)c2ccc3c(c2)CC(C)N3C(C)=O)CC1 (centres undefined)
AC50 [1]: 20 µM [falling, single point]

O=C1CCCC(O)=C1C(C#Cc1ccccc1)C1=C(O)CCCC1=O
AC50 [1]: 25.1 µM [falling, partial curve]

COc1cccc(NC(=O)Cn2cnc3sc(C)c(S(=O)(=O)N4CCN(C)CC4)c3c2=O)c1
AC50 [1]: 31.6 µM [falling, partial curve]

CCOc1ccccc1NC(=O)c1cc(CC(C)C)oc1C
AC50 [1]: 31.6 µM [falling, partial curve]

Cc1ccccc1Cn1c(=O)n(Cc2ccco2)c(=O)c2oc3ccccc3c21
AC50 [1]: 0.0251 µM [rising, full curve]

CCN(CC)S(=O)(=O)c1ccc(/C(O)=C(\C#N)c2nc3ccccc3n2C)cc1
AC50 [1]: 25.1 µM [falling, partial curve]

O=C(c1ccc2c(c1)CCN2S(=O)(=O)c1ccc(Cl)cc1)N1CCN(c2ccccc2F)CC1
AC50 [1]: 12.6 µM [falling, partial curve]

Cc1nn(-c2ccccc2)c2c1C(O)n1c(nc3ccccc31)S2 (centres undefined)
AC50 [1]: 6.31 µM [falling, partial curve]

COc1ccc(S(=O)(=O)N2CCC(NC(=O)Nc3ccc(C)cc3)CC2)cc1
AC50 [1]: 31.6 µM [falling, single point]

CN(C)c1ccc(CN2CCc3nc(N4CCN(c5ccccn5)CC4)ncc3C2)cc1
AC50 [1]: 31.6 µM [falling, partial curve]

Cc1nc2c(c(SCC(=O)Nc3ccccc3C(F)(F)F)n1)CCC2
AC50 [1]: 31.6 µM [falling, single point]

Cc1cc(OC(C)C(=O)N2CCN(CCc3ccccn3)CC2)ccc1Cl (centres undefined)
AC50 [1]: 20 µM [falling, partial curve]

CCOc1ccccc1N1CC(c2nc3ccccc3n2CCCOc2ccccc2)CC1=O (centres undefined)
AC50 [1]: 25.1 µM [falling, partial curve]

CC(C)C(=O)NC1CC(=O)N(c2ccc3c(c2)OCCO3)C1 (centres undefined)
AC50 [1]: 1.26 µM [rising, full curve, poor fit]

Cc1nnc(N2CCN(c3ccc(Cl)cc3)CC2)c2c1nnn2Cc1ccc(F)cc1
AC50 [1]: 10 µM [falling, partial curve]

Oc1ccc(Nc2nc(-c3ccc(O)cc3)cs2)cc1
AC50 [1]: 15.8 µM [falling, partial curve]

CN(C1CCCCC1)S(=O)(=O)c1ccc(F)c(C(=O)Nc2ccc(C(F)(F)F)cc2)c1
AC50 [1]: 15.8 µM [falling, partial curve]
